Measurements published in article doi:10.1101/2019.12.11.872606.
Where two headings read alike, the source gives them in different places. Results are given in words; binding and its absence hold for the method and conditions named. For part of these data: In cells and extracts the contact can be indirect. Some entries that bind do so weakly or less than the wild type. One block for each molecule: values may come before it.

Amino acid sequences for entries named in this document (tags omitted). Residues count along the entry.
UniProt O60469: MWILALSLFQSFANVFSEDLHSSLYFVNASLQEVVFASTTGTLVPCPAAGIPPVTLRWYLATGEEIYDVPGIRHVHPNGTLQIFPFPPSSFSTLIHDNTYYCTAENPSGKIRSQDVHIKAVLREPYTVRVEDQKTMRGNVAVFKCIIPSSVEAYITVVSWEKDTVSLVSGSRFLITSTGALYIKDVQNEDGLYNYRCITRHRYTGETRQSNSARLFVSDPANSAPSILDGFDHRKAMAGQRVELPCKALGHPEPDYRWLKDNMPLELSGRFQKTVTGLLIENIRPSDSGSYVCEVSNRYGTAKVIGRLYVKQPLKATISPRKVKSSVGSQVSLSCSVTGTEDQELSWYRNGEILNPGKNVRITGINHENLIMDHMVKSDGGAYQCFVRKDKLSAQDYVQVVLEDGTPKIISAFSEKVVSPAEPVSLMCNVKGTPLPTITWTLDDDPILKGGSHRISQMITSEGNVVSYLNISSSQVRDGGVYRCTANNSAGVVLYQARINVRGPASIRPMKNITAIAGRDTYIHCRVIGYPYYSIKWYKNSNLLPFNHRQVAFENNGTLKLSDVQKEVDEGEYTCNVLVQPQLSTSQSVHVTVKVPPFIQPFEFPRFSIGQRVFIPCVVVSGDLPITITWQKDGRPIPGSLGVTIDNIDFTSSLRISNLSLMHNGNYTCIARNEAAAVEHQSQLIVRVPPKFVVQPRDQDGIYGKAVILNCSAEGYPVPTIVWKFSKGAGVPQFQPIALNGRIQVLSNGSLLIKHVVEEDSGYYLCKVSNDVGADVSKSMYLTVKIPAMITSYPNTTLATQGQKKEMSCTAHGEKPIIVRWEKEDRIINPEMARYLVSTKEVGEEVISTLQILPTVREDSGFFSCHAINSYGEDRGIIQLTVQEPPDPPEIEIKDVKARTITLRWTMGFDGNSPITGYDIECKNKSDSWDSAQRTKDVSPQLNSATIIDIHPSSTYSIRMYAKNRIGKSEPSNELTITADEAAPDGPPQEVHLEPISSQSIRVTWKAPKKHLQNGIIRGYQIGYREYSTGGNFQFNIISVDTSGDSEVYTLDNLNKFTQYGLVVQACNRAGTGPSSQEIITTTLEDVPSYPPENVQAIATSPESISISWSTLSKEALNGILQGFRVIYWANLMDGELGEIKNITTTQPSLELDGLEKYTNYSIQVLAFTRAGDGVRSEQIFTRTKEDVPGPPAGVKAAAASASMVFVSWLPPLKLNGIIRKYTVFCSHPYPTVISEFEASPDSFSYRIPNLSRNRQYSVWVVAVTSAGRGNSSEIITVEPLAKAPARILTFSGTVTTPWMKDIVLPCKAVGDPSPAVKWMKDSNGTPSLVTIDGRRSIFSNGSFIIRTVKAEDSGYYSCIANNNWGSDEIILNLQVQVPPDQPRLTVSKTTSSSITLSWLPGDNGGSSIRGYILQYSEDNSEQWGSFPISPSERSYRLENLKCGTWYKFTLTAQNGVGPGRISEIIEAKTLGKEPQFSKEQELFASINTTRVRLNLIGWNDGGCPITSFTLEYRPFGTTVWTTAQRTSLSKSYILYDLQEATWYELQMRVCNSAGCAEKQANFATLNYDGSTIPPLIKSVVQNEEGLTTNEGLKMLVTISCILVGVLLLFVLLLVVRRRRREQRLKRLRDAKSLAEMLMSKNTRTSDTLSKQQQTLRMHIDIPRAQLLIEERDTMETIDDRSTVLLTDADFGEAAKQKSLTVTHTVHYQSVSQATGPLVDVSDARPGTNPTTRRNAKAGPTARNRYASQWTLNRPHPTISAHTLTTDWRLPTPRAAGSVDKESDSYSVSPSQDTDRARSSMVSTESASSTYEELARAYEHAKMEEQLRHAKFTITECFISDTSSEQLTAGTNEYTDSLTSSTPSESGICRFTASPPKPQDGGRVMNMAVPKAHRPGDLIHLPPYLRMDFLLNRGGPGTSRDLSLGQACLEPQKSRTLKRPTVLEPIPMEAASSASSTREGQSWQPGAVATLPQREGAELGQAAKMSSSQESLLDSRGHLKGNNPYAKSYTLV
UniProt Q60934, residues 31-836: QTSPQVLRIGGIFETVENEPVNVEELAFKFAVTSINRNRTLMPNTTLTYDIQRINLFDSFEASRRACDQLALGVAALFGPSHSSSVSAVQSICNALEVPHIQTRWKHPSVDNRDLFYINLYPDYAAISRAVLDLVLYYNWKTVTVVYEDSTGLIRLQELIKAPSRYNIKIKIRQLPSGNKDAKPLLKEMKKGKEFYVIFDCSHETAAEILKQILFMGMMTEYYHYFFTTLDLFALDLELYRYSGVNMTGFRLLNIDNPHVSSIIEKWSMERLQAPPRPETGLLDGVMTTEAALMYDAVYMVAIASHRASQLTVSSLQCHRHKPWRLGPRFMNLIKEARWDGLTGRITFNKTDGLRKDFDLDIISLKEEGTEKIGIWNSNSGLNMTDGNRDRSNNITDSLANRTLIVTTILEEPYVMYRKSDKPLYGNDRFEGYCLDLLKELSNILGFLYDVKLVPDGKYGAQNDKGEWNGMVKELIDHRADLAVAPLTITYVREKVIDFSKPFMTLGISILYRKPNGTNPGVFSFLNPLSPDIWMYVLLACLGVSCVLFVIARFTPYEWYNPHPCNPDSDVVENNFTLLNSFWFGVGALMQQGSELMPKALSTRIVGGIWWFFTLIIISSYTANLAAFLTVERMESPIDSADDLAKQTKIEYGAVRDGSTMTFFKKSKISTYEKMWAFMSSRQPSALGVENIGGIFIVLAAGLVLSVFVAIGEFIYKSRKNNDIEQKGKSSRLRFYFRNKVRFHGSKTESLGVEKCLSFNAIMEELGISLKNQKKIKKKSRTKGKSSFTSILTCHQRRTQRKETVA
UniProt O08539: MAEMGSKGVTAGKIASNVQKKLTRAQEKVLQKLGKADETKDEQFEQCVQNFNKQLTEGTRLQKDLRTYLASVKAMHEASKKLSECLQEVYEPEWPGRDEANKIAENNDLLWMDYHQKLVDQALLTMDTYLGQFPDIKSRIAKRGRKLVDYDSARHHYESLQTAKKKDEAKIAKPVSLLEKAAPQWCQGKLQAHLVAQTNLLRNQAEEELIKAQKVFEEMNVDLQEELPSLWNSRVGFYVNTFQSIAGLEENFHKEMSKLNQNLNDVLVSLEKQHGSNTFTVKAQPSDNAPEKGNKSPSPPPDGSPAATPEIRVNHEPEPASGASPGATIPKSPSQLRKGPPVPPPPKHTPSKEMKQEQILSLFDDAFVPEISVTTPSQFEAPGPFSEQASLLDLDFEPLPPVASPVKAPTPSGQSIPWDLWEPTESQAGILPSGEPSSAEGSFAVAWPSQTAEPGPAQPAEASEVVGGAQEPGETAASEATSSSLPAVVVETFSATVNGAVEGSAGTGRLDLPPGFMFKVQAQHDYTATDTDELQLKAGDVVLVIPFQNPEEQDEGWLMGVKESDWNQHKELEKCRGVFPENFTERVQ
UniProt Q12959, residues 305-653: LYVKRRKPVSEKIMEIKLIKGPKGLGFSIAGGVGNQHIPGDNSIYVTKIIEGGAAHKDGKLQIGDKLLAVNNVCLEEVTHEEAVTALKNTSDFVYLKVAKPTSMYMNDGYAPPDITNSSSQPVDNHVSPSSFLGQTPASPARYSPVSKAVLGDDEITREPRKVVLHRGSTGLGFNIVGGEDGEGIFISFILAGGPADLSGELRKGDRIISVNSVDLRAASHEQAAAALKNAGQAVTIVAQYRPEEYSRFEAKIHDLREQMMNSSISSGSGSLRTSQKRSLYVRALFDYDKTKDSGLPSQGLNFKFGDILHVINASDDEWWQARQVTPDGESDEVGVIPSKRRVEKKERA
UniProt P78352, residues 154-356: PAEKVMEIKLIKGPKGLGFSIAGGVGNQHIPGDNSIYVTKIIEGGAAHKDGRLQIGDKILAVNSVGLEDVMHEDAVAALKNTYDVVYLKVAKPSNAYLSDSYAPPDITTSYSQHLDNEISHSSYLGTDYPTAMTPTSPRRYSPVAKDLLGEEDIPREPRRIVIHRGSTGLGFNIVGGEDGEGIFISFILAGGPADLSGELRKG
UniProt Q8VHH5: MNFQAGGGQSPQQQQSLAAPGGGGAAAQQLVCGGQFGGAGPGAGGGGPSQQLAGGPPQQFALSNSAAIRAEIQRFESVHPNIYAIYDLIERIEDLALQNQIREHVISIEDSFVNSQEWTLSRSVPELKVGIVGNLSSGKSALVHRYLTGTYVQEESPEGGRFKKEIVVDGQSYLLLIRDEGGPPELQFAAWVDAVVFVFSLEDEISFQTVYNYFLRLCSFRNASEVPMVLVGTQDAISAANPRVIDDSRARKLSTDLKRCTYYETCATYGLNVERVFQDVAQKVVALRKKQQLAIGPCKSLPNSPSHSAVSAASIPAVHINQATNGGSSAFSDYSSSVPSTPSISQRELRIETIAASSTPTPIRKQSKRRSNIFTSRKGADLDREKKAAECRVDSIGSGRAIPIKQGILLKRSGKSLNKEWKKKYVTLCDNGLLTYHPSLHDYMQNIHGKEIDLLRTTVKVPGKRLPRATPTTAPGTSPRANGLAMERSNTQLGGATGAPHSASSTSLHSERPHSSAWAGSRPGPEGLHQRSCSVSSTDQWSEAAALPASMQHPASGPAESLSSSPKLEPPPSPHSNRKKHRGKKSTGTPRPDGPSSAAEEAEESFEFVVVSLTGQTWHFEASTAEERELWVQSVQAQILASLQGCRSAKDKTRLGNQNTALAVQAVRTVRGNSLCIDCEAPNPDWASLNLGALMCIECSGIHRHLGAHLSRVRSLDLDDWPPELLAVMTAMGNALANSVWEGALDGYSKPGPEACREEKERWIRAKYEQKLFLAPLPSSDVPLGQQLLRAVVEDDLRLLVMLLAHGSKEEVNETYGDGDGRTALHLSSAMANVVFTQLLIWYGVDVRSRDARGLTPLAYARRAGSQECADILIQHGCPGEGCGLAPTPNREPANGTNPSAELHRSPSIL
UniProt Q9Z351: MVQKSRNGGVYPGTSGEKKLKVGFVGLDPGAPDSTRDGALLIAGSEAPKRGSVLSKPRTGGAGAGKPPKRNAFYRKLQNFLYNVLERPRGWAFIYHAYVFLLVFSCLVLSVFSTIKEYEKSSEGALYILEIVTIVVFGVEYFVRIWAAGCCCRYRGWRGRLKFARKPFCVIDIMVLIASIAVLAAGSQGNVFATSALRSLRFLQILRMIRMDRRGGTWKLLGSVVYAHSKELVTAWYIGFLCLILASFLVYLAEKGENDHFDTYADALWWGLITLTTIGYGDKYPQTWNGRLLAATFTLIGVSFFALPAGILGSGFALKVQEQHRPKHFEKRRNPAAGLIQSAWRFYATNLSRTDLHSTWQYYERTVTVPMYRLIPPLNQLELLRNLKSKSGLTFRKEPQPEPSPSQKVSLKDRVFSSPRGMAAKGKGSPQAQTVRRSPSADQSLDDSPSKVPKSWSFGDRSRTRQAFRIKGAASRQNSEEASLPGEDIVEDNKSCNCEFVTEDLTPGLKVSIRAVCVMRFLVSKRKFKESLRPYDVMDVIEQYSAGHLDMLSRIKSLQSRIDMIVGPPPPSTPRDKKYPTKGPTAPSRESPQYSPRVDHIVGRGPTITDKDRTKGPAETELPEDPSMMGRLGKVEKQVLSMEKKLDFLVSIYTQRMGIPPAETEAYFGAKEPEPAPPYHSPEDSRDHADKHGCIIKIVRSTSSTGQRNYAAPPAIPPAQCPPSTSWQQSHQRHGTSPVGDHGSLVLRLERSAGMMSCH
UniProt P53668: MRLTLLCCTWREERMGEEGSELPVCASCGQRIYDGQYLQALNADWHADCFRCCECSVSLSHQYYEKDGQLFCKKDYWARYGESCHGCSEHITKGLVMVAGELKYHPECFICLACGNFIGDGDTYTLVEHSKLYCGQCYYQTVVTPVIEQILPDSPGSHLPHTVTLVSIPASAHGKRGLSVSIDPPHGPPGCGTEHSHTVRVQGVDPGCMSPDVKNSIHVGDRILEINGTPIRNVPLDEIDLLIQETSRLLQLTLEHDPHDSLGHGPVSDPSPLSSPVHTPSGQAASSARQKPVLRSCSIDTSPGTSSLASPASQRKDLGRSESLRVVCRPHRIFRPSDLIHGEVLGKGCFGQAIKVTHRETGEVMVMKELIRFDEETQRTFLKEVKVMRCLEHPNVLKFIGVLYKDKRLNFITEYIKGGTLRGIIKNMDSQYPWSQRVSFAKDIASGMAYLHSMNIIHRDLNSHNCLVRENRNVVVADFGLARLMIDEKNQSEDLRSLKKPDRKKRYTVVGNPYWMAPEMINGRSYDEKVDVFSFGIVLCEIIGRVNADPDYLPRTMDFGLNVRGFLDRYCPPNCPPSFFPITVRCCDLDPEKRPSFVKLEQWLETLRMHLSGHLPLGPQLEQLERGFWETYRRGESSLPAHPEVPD

Experiments:
[1] = molecular target: T1, Hunk (endogenous, mouse cortical neurons) (mouse (endogenous in primary cortical neurons)) (UniProt O88866); assay: proximity ligation
T1 sequence: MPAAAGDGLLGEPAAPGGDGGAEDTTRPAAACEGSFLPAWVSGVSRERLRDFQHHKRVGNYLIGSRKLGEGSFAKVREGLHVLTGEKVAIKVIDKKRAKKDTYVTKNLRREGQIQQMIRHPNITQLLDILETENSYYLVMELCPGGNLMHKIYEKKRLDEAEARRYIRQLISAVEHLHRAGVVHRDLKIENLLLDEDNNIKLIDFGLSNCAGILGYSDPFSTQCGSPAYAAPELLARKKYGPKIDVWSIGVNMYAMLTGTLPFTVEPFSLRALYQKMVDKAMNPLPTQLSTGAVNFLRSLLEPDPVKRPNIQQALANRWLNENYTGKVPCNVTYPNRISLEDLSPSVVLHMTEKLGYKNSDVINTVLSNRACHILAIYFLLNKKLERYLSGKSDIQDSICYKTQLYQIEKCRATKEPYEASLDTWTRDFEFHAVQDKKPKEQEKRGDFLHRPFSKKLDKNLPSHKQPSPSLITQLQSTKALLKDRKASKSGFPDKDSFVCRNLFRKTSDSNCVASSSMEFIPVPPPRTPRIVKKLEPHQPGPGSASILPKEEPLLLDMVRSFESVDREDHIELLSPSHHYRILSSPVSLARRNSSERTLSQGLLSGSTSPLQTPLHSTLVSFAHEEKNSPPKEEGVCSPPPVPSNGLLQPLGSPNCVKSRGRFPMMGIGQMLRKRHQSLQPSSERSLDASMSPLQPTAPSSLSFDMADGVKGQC

[2] = molecular target: Tiam1 (endogenous, mouse cortical neurons) (mouse (endogenous in primary cortical neurons)) (UniProt Q60610); assay: proximity ligation
human DSCAM (human) [3] = molecular target: human DSCAM (human) (UniProt O60469); assay: two-hybrid
human DSCAM (human) [4] = molecular target: human DSCAM (human) (UniProt O60469); assay: two-hybrid; remark: listed apart in the source
[5] = molecular target: Grik1 (endogenous, mouse cortical neurons) (mouse (endogenous in primary cortical neurons)) (UniProt Q60934); assay: proximity ligation
[6] = molecular target: Dyrk1a-GFP construct (mouse) (UniProt Q61214); assay: proximity ligation

Molecule: Bin1 (endogenous, mouse cortical neurons) (from UniProt O08539 1-588)
- binding [2]: binds

Molecule: DLG1 (aa 305-653) (from UniProt Q12959 305-653) (domain or fragment)
- binding (human DSCAM (human) [3]): binds
- binding (human DSCAM (human) [4]): binds

Molecule: DLG4 (154-356) (from UniProt P78352 154-356) (domain or fragment)
- binding (human DSCAM (human) [3]): binds
- binding (human DSCAM (human) [4]): binds

Molecule: Kalrn (endogenous, mouse cortical neurons) (from UniProt A2CG49 1-2964)
- binding [5]: binds

Other lines, results leading:

- binding [1]: binds
Molecule: Agap3 (endogenous, mouse cortical neurons) (from UniProt Q8VHH5 1-910)

- binding [5]: binds
Molecule: Hcn1 (endogenous, mouse cortical neurons) (from UniProt O88704 1-910)

- binding [5]: binds
Molecule: Kcnq2 (endogenous, mouse cortical neurons) (from UniProt Q9Z351 1-759)

- binding [1]: binds
Molecule: Limk1 (endogenous, mouse cortical neurons) (from UniProt P53668 1-647)

- binding [6]: binds
B1: Rnasen (endogenous, mouse cortical neurons) (protein, UniProt Q5HZJ0 1-1373)
chain: MQGNTCHRMSYHPGRGCPRGRGGHGARPSAPAFRPQNLRLLHPQQPPAQYQYEPPSAPSSSYSNSQAPSFMPPRPDFVPYPPPAAPSAQGPLPPCPVRPPYPNHQMRHPFPVPPCFPPMPPPMPCPNNPPASGAPPGQGTFPFMVPPPSMPHPPPPPVMPQQVNYQYPPGYSHSFPPPGFNSYQNNSSSFPPSANSSSTPHFRHLPPYSLPKAQNERRSPERLKHYDDHRHRDHSHGRGERHRSLERRERGRSPERRRPESRYRSDYDRGRTPPPRHRSYERSRERDRERHRHREARRSPSLERSYKKEYKRSGRSYALPVAPEPAGCTPELPGEMIKTTESWAPPPENVNHRSPSREKKRARWEEEKDRWSDSQGSGKEKNYTSIKEKEAEEVPPEKTEEEEEELLKPVWIRCTHSESYYSSDPMDQVGDSTVVGTSRLRDLYDKFEEELGNRQEKAKAARPPWEPPKTKLDEDLESSSESECETDDDSTCSSSSDSEVFDVIAEIKRKKAHPDRLHDELWYNDPGQMNDGPLCKCSAKARRTGIRHSIYPGEEAIKPCRPMTNNAGRLFHYRITVSPPTNFLTDRPTVIEYDDHEYIFEGFSMFAHAPLTNIPLCKVIRFNIDYTIHFIEEMMPENFCVKGLELFSLFLFRDILELYDWNLKGPLFEDSPPCCPRFHFMPRFVRFLPDGGKEVLSMHQILLYLLRCSKALVPEEEIANMLQWEELEWQKYAEECKGMIVTNPGTKPSSVRIDQLDREQFNPEVITFPIIVHFGIRPAQLSYAGDPQYQKLWKSYVKLRHLLANSPKVKQTDKQKLAQREEALQKIRQKNTMRREVTVELSSQGFWKTGIRSDVCQHAMMLPVLTHHIRYHQCLMHLDKLIGYTFQDRCLLQLAMTHPSHHLNFGMNPDHARNSLSNCGIRQPKYGDRKVHHMHMRKKGINTLINIMSRLGQDDPTPSRINHNERLEFLGDAVVEFLTSVHLYYLFPSLEEGGLATYRTAIVQNQHLAMLAKKLELDRFMLYAHGPDLCRESDLRHAMANCFEALIGAVYLEGSLEEAKQLFGRLLFNDPDLREVWLNYPLHPLQLQEPNTDRQLIETSPVLQKLTEFEEAIGVIFTHVRLLARAFTLRTVGFNHLTLGHNQRMEFLGDSIMQLVATEYLFIHFPDHHEGHLTLLRSSLVNNRTQAKVAEELGMQEYAITNDKTKRPVALRTKTLADLLESFIAALYIDKDLEYVHTFMNVCFFPRLKEFILNQDWNDPKSQLQQCCLTLRTEGKEPDIPLYKTLQTVGPSHARTYTVAVYFKGERIGCGKGPSIQQAEMGAAMDALEKYNFPQMAHQKRFIERKYRQELKEMRWEREHQEREPEEAEDIKK

- binding (human DSCAM (human) [4]): binds
B2: DLG3 (aa 212-385) (domain or fragment, UniProt Q92796 212-385)
chain: LVVRRRQPPPETIMEVNLLKGPKGLGFSIAGGIGNQHIPGDNSIYITKIIEGGAAQKDGRLQIGDRLLAVNNTNLQDVRHEEAVASLKNTSDMVYLKVAKPGSLHLNDMYAPPDYASTFTALADNHISHNSSLGYLGAVESKVSYPAPPQVPPTRYSPIPRHMLAEEDFTREPR
